Results deposited as PubChem BioAssay AID504793 (Drosophila RNAi Screening Center, 2011)

Purpose: 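Knock-downs allowing continued mitosis even though DNA is damaged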 (primary screen)
Cells: Drosophila S2R+ cells
Knock-down reagent: long dsRNA against Drosophila genes, about 0.25 µg dsRNA per well
Time to read-out: 4 days of dsRNA, then 4 hours of drug before read-out
Treatment: doxorubicin 0.5 µM for 4 hours to cause double-strand breaks, in cells also given a low, harmless dose of dsRNA against nbs to sensitise the assay
Read-out: 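Per-well count of mitotic cells stained for phospho-histone H3 after doxorubicin exposure, used as mitotic index; counts are raw and not normalised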
Scale: mitotic cells: higher = more cells in mitosis, weaker G2 arrest
Hit rule: 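Genes are called active only when high mitotic counts were reproduced with independent dsRNAs and mitosis was checked for delay without damage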
Calls: active = confirmed in follow-up tests; inactive = not confirmed
The deposit covers about 23,000 reagents; below is a random part of those with a known target gene and a result. In the full data, 62 (0.27%) were called active. 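Calls come from follow-up tests whose scores are not deposited, so confirmed genes may have low counts here; counts are not normalised per plate.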 Raw values are not corrected between plates. Entries without a mark were called inactive. The numbers tell different reagents against one gene apart. A plus sign joins genes that one reagent is predicted to hit. No sequences are given here.

CG6847 #1
- mitotic cells, replicate 1: 26

CG6847 #2
- mitotic cells, replicate 1: 13

CG3306
- mitotic cells, replicate 1: 8

Coq5 #1
- mitotic cells, replicate 1: 13

Coq5 #2
- mitotic cells, replicate 1: 5

Coq5 #3
- mitotic cells, replicate 1: 4

Sans #1
- mitotic cells, replicate 1: 7

Sans #2
- mitotic cells, replicate 1: 6

CG15203
- mitotic cells, replicate 1: 5

JIL-1
- mitotic cells, replicate 1: 7

CG32086
- mitotic cells, replicate 1: 6

CG3347
- mitotic cells, replicate 1: 7

Zip89B #1
- mitotic cells, replicate 1: 6

Zip89B #2
- mitotic cells, replicate 1: 3

CG15711
- mitotic cells, replicate 1: 6

mRpS31
- mitotic cells, replicate 1: 4

CG30480 #1
- mitotic cells, replicate 1: 8

CG30480 #2
- mitotic cells, replicate 1: 5

CG12321 #1
- mitotic cells, replicate 1: 11

CG12321 #2
- mitotic cells, replicate 1: 4

CG3502 + CG9863
- mitotic cells, replicate 1: 3

CG17575 #1
- mitotic cells, replicate 1: 9

CG17575 #2
- mitotic cells, replicate 1: 4

SelG #1
- mitotic cells, replicate 1: 14

SelG #2
- mitotic cells, replicate 1: 6

Obp19a
- mitotic cells, replicate 1: 6

ppk7
- mitotic cells, replicate 1: 9

CG5439 #1
- mitotic cells, replicate 1: 2

CG5439 #2
- mitotic cells, replicate 1: 9

Neb-cGP
- mitotic cells, replicate 1: 24

CG15423 #1
- mitotic cells, replicate 1: 3

CG15423 #2
- mitotic cells, replicate 1: 4

GrlHz
- mitotic cells, replicate 1: 7

Ack #1
- mitotic cells, replicate 1: 2

Ack #2
- mitotic cells, replicate 1: 5

Entries listed so far whose gene name begins with A or a:
Ack #1
- mitotic cells, replicate 1: 2

Ack #2
- mitotic cells, replicate 1: 5
